Assay results published in patent publication CN108290942A.
Residue numbers refer to the chain shown, from its start. Results are given in words; binding and its absence hold for the method and conditions named. Some binding calls cover weakened binding; strength is not graded here.

T1: 人信号素3A蛋白 (human) (UniProt Q14563)
T1 sequence (looked up): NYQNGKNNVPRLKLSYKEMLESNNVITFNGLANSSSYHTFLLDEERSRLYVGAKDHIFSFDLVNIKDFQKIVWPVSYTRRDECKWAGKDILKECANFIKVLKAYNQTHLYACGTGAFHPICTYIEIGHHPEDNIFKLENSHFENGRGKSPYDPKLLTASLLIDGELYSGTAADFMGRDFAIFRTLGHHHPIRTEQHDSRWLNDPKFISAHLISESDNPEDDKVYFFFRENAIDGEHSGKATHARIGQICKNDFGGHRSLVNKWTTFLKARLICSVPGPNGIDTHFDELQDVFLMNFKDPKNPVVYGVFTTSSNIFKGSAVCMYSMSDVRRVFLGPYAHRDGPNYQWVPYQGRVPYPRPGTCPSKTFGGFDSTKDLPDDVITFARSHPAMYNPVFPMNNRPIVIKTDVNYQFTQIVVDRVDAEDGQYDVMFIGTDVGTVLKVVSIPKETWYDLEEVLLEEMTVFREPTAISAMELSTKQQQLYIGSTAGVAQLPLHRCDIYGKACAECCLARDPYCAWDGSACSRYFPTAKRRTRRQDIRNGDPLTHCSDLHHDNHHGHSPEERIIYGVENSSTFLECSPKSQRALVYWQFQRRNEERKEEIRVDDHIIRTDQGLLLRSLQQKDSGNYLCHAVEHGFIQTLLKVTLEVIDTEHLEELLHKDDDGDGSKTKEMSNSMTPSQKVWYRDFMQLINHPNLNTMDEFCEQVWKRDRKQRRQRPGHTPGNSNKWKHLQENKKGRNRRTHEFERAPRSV

T2: 小鼠信号素3A蛋白 (mouse) (UniProt O08665)
T2 sequence (looked up): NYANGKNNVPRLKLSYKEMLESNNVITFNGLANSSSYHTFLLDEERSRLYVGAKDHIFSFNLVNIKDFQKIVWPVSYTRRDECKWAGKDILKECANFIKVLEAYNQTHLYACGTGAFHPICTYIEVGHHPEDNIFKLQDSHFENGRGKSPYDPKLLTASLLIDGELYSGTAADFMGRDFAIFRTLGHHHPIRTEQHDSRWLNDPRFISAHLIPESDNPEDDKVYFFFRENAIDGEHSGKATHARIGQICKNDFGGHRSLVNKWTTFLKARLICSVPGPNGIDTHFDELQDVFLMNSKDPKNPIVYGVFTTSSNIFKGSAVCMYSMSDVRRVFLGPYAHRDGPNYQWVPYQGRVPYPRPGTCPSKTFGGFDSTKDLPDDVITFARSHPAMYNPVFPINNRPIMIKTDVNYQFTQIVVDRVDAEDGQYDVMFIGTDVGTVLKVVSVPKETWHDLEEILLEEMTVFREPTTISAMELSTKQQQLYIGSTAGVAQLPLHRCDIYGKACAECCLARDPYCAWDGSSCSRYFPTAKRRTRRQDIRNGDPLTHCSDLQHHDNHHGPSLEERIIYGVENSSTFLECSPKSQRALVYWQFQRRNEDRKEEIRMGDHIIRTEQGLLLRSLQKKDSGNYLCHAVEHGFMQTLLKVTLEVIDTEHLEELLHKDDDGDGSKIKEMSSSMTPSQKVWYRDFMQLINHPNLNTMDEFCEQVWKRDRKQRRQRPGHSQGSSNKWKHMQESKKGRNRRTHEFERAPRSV

B1: 抗信号素3A IgG C10 (antibody, V domains shown)
VH: EVQLLESGGGLVQPGGSLRLSCAASGFTFSDYAMSWVRQAPGKGLEWVSGIYYDDSSQYYADSVEGRFTISRDNSKNTLYLQMNSLRAEDTAVYYCARYLGLFDYWGQGTLVTVSS
VL: QSVLTQPPSASGTPGQRVTISCSGSSSNIGNNSVNWYQQLPGTAPKLLIYSDSQRPSGVPDRFSGSKSGTSASLAISGLRSEDEADYYCGSWDYSLSAYVFGGGTKLTVL
B2: 抗信号素3A IgG F11 (antibody, V domains shown)
VH: B1 VH with P14T, G50W, D55S, S56G, Q58K, E65K, R98K, Y99L, L100N, L102D
VL: B1 VL with S33D, N35S, S51A, Q54H, S91A, Y94S, A98G
B3: 抗信号素3A IgG A08 (antibody, V domains shown)
VH: B1 VH with E65K, R98K, Y99N, L102R
VL: B1 VL with S23T, N31S, S33A, N35T, S51D, S53N, Q54H, S91A, Y94D

Tests used:
[1] = target: T1, 人信号素3A蛋白 (human); test: ELISA, IgG at 500 nM and 50 nM, BSA as negative control
[2] = target: T2, 小鼠信号素3A蛋白 (mouse); test: as above
[3] = target: T1, 人信号素3A蛋白 (human); test: SPR, Biacore
[4] = target: T2, 小鼠信号素3A蛋白 (mouse); test: SPR, Biacore

| Binder | binding [1] | binding [2] | binding [3] | binding [4] |
| --- | --- | --- | --- | --- |
| B1 | binds | binds |  |  |
| B2 | binds | binds | binds | binds |
| B3 | binds | binds |  |  |
